For four substances, binding results are on record in article PMC12106737.

Sequences of proteins named here, by UniProt entry; tags and fusion partners are left off.
UniProt Q13619: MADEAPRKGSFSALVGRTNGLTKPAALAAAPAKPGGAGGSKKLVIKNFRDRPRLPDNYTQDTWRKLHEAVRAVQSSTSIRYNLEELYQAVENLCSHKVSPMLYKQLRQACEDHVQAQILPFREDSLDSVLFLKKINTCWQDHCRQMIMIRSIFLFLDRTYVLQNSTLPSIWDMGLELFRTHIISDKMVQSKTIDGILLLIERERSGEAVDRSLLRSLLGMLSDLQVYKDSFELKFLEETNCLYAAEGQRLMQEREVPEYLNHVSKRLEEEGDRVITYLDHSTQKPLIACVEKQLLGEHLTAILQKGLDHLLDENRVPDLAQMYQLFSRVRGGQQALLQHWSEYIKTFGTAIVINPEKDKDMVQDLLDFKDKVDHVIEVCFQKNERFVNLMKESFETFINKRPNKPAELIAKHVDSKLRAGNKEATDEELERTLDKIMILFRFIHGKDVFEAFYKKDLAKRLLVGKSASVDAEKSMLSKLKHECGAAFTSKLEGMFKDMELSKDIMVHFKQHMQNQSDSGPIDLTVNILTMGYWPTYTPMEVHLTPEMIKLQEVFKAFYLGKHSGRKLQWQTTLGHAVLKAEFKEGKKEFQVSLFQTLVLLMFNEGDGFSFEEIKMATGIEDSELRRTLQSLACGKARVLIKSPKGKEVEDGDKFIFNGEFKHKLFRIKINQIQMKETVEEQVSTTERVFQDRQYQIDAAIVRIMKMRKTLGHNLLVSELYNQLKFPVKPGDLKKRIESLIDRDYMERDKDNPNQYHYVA
UniProt Q13620: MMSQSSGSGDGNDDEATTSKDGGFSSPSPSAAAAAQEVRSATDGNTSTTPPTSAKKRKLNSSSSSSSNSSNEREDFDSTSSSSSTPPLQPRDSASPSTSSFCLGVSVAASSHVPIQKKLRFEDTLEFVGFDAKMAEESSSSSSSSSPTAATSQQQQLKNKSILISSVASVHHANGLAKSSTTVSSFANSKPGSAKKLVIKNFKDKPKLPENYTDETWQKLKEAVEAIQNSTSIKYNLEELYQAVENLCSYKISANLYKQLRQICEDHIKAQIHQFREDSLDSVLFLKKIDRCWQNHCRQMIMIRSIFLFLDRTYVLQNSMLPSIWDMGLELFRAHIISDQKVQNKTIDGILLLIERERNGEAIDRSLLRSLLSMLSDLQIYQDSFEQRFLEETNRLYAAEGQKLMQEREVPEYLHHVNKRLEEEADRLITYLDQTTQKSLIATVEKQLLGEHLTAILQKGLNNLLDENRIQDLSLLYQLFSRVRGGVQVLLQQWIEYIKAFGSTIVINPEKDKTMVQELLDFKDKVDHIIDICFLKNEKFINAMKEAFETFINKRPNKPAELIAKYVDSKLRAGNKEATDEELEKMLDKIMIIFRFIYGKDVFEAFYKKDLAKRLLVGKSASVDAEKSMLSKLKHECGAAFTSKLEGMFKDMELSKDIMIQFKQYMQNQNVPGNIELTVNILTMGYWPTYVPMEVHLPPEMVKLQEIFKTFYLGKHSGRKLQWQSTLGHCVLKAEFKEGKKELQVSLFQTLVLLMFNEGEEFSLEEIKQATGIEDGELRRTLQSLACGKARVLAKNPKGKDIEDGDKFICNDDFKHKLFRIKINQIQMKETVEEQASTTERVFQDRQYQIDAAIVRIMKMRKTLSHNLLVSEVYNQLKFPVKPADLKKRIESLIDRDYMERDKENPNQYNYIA
UniProt Q93034: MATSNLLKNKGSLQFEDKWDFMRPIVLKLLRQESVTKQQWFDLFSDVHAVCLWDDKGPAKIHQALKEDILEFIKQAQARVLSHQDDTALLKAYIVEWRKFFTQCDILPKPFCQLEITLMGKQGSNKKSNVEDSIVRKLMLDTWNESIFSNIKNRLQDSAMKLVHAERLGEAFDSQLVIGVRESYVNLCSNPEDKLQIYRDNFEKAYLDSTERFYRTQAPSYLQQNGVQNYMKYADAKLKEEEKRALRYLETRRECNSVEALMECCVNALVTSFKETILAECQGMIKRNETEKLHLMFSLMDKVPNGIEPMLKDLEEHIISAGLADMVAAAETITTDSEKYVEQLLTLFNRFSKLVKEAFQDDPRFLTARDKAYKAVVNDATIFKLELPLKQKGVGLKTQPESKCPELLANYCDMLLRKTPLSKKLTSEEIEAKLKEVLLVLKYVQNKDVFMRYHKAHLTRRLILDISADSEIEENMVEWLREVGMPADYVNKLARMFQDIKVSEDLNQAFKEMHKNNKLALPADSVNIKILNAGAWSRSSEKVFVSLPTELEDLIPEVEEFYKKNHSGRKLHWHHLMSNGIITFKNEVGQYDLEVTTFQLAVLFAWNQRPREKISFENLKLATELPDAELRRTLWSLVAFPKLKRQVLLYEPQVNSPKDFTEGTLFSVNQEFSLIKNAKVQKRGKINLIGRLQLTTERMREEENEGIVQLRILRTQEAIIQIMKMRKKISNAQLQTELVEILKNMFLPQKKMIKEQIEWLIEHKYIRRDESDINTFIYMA
UniProt Q14999: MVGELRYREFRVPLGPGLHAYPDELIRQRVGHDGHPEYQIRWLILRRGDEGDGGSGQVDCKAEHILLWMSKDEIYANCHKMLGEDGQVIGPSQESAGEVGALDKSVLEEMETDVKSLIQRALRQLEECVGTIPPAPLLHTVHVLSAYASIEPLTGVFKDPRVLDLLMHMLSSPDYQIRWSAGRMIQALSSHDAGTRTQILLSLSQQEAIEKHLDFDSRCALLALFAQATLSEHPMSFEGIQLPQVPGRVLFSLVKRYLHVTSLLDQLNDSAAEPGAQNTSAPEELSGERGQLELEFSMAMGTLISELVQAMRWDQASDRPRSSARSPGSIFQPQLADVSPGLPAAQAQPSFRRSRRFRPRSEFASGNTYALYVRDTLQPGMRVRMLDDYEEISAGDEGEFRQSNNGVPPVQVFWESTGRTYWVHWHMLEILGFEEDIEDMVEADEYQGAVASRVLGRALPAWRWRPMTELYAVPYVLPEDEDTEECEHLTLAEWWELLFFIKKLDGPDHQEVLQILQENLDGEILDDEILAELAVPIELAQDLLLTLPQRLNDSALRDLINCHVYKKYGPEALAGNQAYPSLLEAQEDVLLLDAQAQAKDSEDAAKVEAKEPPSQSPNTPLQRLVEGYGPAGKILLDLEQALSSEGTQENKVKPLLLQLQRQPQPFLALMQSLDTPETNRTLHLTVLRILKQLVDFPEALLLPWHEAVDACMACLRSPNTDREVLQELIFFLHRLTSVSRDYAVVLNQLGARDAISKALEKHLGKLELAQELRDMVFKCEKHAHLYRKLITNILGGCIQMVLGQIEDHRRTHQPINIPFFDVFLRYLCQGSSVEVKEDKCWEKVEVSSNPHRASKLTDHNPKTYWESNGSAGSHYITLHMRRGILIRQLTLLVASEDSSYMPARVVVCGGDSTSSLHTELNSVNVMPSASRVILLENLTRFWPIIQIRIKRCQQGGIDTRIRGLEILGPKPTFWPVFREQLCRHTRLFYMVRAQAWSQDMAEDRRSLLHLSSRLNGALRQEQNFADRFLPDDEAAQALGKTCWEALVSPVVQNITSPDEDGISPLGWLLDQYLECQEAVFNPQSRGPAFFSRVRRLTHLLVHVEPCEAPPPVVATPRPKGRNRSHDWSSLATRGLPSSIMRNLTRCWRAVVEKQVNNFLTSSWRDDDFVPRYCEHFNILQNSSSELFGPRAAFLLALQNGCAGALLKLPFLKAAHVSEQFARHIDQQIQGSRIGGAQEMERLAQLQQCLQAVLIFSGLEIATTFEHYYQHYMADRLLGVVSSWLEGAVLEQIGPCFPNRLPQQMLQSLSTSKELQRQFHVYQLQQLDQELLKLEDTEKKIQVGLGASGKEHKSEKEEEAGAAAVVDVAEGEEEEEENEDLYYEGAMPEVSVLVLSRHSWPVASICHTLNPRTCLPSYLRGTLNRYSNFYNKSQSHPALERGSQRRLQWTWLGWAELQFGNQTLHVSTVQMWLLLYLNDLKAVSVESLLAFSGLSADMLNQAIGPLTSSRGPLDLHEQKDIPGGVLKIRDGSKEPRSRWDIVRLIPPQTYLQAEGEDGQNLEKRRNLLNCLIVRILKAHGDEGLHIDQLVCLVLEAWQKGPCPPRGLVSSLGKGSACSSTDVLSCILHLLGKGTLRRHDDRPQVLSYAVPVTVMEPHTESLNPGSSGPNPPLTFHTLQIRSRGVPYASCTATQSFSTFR

Results are given in words; binding and its absence hold for the method and conditions named. In cells and extracts the contact can be indirect. Some results given as binding are weak or reduced against the parent protein; the word gives no strength. Where a sequence is shown, tags or fusion partners need not be part of it.

For this assay, the target named is T1, Flag-tagged FBP1 (fructose-1,6-bisphosphatase) (human) (UniProt P09467).
T1 sequence: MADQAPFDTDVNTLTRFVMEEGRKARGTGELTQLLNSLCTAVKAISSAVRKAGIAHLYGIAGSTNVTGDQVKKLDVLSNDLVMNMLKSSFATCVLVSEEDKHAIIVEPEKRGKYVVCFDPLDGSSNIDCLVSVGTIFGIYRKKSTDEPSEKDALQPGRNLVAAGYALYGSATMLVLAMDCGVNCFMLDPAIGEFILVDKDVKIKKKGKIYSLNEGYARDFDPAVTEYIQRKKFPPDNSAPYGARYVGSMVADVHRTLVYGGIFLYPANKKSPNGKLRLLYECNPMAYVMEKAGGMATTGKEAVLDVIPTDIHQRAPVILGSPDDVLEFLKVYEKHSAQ
Put plainly: co-IP; HEK293T cells transfected with Flag-FBP1 and Myc-Cullins; cell lysates, immunoprecipitation and Western blot by standard protocols.

Take Myc-CUL4A (from UniProt Q13619 1-759): the binding result was “no binding”.
As for Myc-CUL4B (from UniProt Q13620 1-913), the binding result is reported as “binds”.
In the case of Myc-CUL5 (from UniProt Q93034 1-780), the binding entry is listed as “no binding”.
In the case of Myc-CUL7 (from UniProt Q14999 1-1698), the binding result was “no binding”.
